From publication PMC11955279 come the findings set out here.

Protein sequences, listed by entry. Tags and fused reporters are not part of them. Lines headed by an entry give the natural chain unless they say otherwise; changes in a name come on top.
UniProt O22456: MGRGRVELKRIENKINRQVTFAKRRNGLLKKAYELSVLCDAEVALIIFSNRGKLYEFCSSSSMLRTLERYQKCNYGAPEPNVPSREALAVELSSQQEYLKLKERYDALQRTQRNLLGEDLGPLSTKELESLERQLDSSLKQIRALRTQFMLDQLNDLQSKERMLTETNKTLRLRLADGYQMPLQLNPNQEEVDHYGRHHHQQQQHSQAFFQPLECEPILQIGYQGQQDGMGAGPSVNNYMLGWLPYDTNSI

The target in series [1] is GST-AtSEP3 (wild type) (Arabidopsis thaliana) (UniProt O22456). The series can be described thus: EMSA. The settings on record: Room temperature; chemiluminescent EMSA kit GS009 (Biyun Tian); salt and pH not given; recombinant protein; residues 1-251; protein details: GST (pGEX-4T-3); label: biotin. Background: A gel shift assay detects complexes by their altered migration in electrophoresis.

Series [2] deals with GST-AtSEP3-DT5 L116A (Arabidopsis thaliana) (UniProt O22456). The series is described as follows: EMSA. The settings on record: lane 2 is named SEP3-T5 in the legend, probably DT5; Room temperature; chemiluminescent EMSA kit GS009 (Biyun Tian); salt and pH not given; recombinant protein; residues 1-251; protein details: GST (pGEX-4T-3); label: biotin.
The target in series [3] is GST-AtSEP3-T5 L99A,L101A,L108A,L115A,L116A (Arabidopsis thaliana) (UniProt O22456). The series is described as follows: EMSA. The settings on record: Room temperature; chemiluminescent EMSA kit GS009 (Biyun Tian); salt and pH not given; recombinant protein; residues 1-251; protein details: GST (pGEX-4T-3); label: biotin.
Series [4] has as its target GST-AtSEP3 (wild type) (Arabidopsis thaliana) (UniProt O22456). The series can be described thus: competition with a labelled probe. The settings on record: unlabeled probe lowers the band of labeled N1; Room temperature; chemiluminescent EMSA kit GS009 (Biyun Tian); salt and pH not given; recombinant protein; residues 1-251; protein details: GST (pGEX-4T-3).

Construct, isoform or probe ends are uncertain for at least one entry. For some of these results: Weaker means in comparison with the reference protein, sequence or condition of that experiment.

“TTTTCTAGGGCTTCCATTTTTGGATTTTTTGATTAGCC (double strand) [AP1 probe (single CArG box), labeled]”: the binding result is “binds” in series [1], “binds more weakly” in series [2] and “binds more weakly” in series [3].

As for “TTTTCTAGGGCTTCCATTTTTGGATTTTTTGATTAGCC (double strand) [AP1 probe, unlabeled competitor]”, in series [4], the binding result is listed as “binds”.
